Assay results reported in PMC3905715 (Nature Communications, 2013).
Results are given in words; binding and its absence hold for the method and conditions named. In cells and extracts the contact can be indirect. For part of these data: Binding can be weak; no strength is given. For part of these data: Where a sequence is shown, tags or fusion partners need not be part of it.

Protein sequences, listed by entry. Tags and fused reporters are not part of them. Lines headed by an entry give the natural chain unless they say otherwise; changes in a name come on top.
UniProt A2ARI4: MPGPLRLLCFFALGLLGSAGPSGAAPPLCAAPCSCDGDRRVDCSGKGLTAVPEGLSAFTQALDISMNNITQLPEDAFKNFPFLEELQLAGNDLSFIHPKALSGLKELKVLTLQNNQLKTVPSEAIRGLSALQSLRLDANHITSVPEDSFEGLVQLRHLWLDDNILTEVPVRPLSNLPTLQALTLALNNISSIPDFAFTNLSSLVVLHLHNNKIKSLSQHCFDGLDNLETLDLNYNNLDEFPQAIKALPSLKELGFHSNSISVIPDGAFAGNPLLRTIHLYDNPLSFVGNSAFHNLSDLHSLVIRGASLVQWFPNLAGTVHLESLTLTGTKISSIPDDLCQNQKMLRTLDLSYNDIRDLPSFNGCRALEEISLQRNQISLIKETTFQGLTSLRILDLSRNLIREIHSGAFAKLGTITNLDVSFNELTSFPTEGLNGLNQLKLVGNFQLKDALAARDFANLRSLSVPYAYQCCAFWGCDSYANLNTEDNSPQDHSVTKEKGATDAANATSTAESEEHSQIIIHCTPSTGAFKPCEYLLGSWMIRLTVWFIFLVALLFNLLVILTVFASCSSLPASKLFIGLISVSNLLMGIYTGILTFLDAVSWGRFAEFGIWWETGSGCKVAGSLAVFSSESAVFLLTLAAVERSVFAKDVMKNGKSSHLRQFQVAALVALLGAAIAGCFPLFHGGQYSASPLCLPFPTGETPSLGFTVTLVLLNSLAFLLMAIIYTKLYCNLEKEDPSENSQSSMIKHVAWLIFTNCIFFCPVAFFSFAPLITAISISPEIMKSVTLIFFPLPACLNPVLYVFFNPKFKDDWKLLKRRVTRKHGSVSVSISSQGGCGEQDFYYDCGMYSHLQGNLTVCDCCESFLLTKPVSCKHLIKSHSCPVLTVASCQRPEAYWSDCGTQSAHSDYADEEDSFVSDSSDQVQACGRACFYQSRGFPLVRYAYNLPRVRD

What was measured:
[1] = target: T1, Human RNF43 ECD-IgG (1–198) (human) (UniProt Q68DV7); assay: co-IP; conditioned media mixed at 4 °C overnight; RNF43 ECD-IgG captured on protein G-agarose, Myc-tagged Rspo1 derivatives detected by blot
T1 sequence: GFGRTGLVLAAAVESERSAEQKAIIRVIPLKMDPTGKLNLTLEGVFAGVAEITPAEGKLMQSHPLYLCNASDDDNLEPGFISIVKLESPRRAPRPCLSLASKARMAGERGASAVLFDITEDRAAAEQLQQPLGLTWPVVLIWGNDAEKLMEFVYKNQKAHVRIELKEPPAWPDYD

[2] = target: human Rspo1 Fu1–Fu2-Myc (1–147) (human) (UniProt Q2MKA7); assay: co-IP; conditioned media mixed at 4 °C overnight; Myc-tagged Rspo1 derivatives precipitated with anti-Myc (9E10), HA-Lgr4 ECD detected by blot
[3] = target: Full-length human RSPO1-Myc (1–263) (human) (UniProt Q2MKA7); assay: as above
[4] = target: human Rspo1 deltaFurin1-Myc (del 39–94) (human) (UniProt Q2MKA7); assay: as above
[5] = target: T2, human Rspo1 deltaFurin2-Myc (del 97–142) (human) (UniProt Q2MKA7); assay: as above
T2 sequence: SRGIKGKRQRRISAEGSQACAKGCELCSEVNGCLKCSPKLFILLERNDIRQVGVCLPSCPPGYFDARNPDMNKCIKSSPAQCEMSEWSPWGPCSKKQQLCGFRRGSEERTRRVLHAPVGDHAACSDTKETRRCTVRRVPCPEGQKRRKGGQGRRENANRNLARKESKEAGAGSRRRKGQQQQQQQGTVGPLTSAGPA

[6] = target: human Rspo1 TSR-Myc (1–20, 144–263) (human) (UniProt Q2MKA7); assay: as above

binding [1] | binding [2] | binding [3] | binding [4] | binding [5] | binding [6] | Substance
no binding |  |  |  |  |  | human Rspo1 TSR-Myc (1–20, 144–263) (from UniProt Q2MKA7) (domain or fragment)
 | binds | binds | binds | no binding | no binding | mouse HA-Lgr4 ECD (from UniProt A2ARI4) (domain or fragment)
